Literature values as cited in patent US7618988B2, “Use of substituted aminomethyl chromans” (Merck Patentgesellschaft, priority 2001, dated 2009).
For at least one compound, name, drawing or mass did not settle the structure.

Test system: Parkinson patients
Settings: literature; cited from earlier work

Compound: CN1CCN(C2=Nc3cc(Cl)ccc3Nc3ccccc32)CC1 [clozapine]
- anti-dyskinetic effect: beneficial antidyskinetic effects
